Reference: paper PMC5372524, “Structural Basis of Native CXCL7 Monomer Binding to CXCR2 Receptor N-Domain and Glycosaminoglycan Heparin” (International Journal of Molecular Sciences, 2017)
Results are given in words; binding and its absence hold for the method and conditions named. Some entries that bind do so weakly or less than the wild type.

Protein sequences, listed by entry. Tags and fused reporters are not part of them. Residues count along the entry.
UniProt P25025, residues 1-43: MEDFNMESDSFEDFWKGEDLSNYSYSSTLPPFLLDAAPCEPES

Target: T1, CXCL7 (NAP-2, neutrophil-activating peptide 2), wild type (UniProt P02775)
T1 sequence: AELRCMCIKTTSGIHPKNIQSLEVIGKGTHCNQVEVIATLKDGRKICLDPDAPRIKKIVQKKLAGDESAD
Test: NMR titration; unlabelled CXCR2 N-domain (320 uM) titrated to 77 uM 15N WT CXCL7; series of 1H-15N HSQC spectra; 50 mM phosphate buffer, pH 6.0, 35 °C; final molar ratio CXCL7:CXCR2 N-domain 1:3.5; both purified

- binding: binds
Substance: CXCR2 N-terminal domain peptide (residues 1 to 43) (from UniProt P25025 1-43) (domain or fragment)
